{"source": "paper PMC7617459", "about": "“Comparative Evaluation and Profiling of Chemical Tools for the Nuclear Hormone Receptor Family 2” (ACS pharmacology & translational science, 2025)", "origin": "cited, not measured here", "key": {"full-length TLX": {"tested_on": "full-length TLX", "details": "cited from earlier work"}, "TLX LBD": {"biological_target": "TLX LBD", "details": "ITC; cited from earlier work"}, "TLX": {"tested_on": "TLX", "details": "reporter gene assay; read-out: Gal4-TLX EC50; cited from earlier work"}}, "note": "pEC50, pKd: −log10 of the molar value."}
{"compound": "CC(C)NCC(O)COc1cccc2ccccc12", "note": "(stereo not drawn) [compound 18, propranolol]", "values": [{"measurement": "pEC50", "setting": "full-length TLX", "result": 4.43}, {"measurement": "pKd", "setting": "TLX LBD", "result": 6.30}, {"measurement": "pEC50", "setting": "TLX", "result": 4.49}]}
